This test has as its target ubiquitin specific protease 7 (human (endogenous in the cell lines of the paper; SiHa and HeLa are the CC lines used, not named for the co-IP)) (UniProt Q93009). Description: co-IP; cell lysate in co-IP buffer (50 mM Tris pH 7.5, 150 mM NaCl, 5 mM EDTA, 1-2% Nonidet P-40, protease inhibitors); anti-USP7 or anti-IgG with protein A + G agarose beads, 4 °C, 4 h; western blotting. Background: In western blotting, separated proteins are transferred to a membrane and probed.

Amino acid sequences for entries named in this document (tags omitted).
UniProt Q93009: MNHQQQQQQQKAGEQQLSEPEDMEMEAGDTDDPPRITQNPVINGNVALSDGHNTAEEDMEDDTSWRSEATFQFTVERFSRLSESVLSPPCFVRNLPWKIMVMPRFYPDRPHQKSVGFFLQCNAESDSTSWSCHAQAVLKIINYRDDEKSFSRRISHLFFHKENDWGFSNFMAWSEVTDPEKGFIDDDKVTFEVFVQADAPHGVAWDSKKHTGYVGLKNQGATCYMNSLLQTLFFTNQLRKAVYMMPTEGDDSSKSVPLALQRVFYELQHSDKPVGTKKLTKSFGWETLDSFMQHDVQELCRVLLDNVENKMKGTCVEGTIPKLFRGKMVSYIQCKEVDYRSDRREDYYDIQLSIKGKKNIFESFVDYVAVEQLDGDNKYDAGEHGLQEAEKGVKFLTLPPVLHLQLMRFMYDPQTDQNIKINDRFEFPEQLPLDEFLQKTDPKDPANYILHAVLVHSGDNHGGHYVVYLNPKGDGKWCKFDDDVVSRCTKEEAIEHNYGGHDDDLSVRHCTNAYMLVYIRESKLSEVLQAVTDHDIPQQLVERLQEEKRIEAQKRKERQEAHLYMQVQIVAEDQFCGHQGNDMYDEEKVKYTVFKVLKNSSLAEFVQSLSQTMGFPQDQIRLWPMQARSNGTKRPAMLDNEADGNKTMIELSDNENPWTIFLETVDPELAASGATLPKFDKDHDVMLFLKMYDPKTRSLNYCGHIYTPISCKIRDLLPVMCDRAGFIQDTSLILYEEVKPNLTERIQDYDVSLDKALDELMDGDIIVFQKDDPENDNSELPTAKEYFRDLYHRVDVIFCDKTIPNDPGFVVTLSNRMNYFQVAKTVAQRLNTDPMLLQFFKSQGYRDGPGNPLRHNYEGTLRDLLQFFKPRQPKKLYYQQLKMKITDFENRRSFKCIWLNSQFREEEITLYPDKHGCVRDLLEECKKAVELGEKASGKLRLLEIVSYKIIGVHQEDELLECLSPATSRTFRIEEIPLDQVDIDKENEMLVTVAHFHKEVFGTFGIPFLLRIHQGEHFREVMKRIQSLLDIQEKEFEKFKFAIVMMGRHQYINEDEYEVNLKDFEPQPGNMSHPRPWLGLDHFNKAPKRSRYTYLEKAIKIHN

No constants are given. Whether binding was seen depends on the method and setting. In cells and extracts the contact can be indirect. Some entries that bind do so weakly or less than the wild type.

B1: Metadherin (protein, UniProt Q86UE4 1-582)
chain: MAARSWQDELAQQAEEGSARLREMLSVGLGFLRTELGLDLGLEPKRYPGWVILVGTGALGLLLLFLLGYGWAAACAGARKKRRSPPRKREEAAAVPAAAPDDLALLKNLRSEEQKKKNRKKLSEKPKPNGRTVEVAEGEAVRTPQSVTAKQPPEIDKKNEKSKKNKKKSKSDAKAVQNSSRHDGKEVDEGAWETKISHREKRQQRKRDKVLTDSGSLDSTIPGIENTITVTTEQLTTASFPVGSKKNKGDSHLNVQVSNFKSGKGDSTLQVSSGLNENLTVNGGGWNEKSVKLSSQISAGEEKWNSVSPASAGKRKTEPSAWSQDTGDANTNGKDWGRSWSDRSIFSGIGSTAEPVSQSTTSDYQWDVSRNQPYIDDEWSGLNGLSSADPNSDWNAPAEEWGNWVDEERASLLKSQEPIPDDQKVSDDDKEKGEGALPTGKSKKKKKKKKKQGEDNSTAQDTEELEKEIREDLPVNTSKTRPKQEKAFSLKTISTSDPAEVLVKNSQPIKTLPPATSTEPSVILSKSDSDKSSSQVPPILQETDKSKSNTKQNSVPPSQTKSETSWESPKQIKKKKKARRET
Consider B1, for which the binding result is given as “binds”.
